Assay results as given in publication PMC10163288.
The list shows a part of the results.

B1: il2ra_site2_2erj_sap_19_mot_HHH_b2_07688_000000103_0001_43_57_H_._HHH_b2_07873_af2_0001_0000200034_0000001_0_0001 (protein)
chain: SSSSSSAEEALRMVEELVEKNDREEIEYILMFLELTLKATGSPEIEEAFELVEELLEQLRRSSSS
B2: il2ra_site2_2erj_sap_21_mot_HHH_b1_00376_000000139_0001_38_52_H_._HHH_b2_08330_0001_0000700006_0000001_0_0001_af2pred_0001_af2pred (protein)
chain: SSSSSSDSEEEVERLLEEARHIPNLREALKLLQEADRIADERDDEELIELVDKVLRELSSSSSSS
B3: il2ra_site2_3nfp_normal_mot_HHH_b2_06150_000000230_0001_39_53_H_._HHH_b2_07317_0001_0000100008_0000001_0 (protein)
chain: SSSSSDVEELLEQVEEAIEEGDLELARRLLARAAQLAYELGDTELFYRVAELVLELERLKSSSSS
B4: il2ra_site1_1z92_normal_mot_HHH_b2_04375_000000267_0001_42_56_H_._c3a59189b182c38a193c256a3bd90efb_0001_1_0001_0000100007_0000001_0_af2pred_0001_af2pred_1_swapp … (protein)
chain: SEEEAEEFLEELAPPEAREVLKNDKEKAEKAGIPPERVLRVLALALARSLEDPRVKEEVEKLLRK
B5: il2ra_site1_3nfp_sap_12_mot_HHH_b1_07560_af2_000000209_0001_40_57_H_._HHH_b1_00637_0001_0000300019_0000001_0_0001_af2pred_0001_af2pred_1_swapped (protein)
chain: SELEEVLRELRERFKDDPEVEEVLELIKEAAEKGDVRLVRELLKRLLRVLGDPELVLALMRAMAK
B6: il2ra_site2_2erj_sap_18_mot_dcd9809507f71d420582ead1f1e1bbb3_0001_000000226_0001_37_50_H_._HHH_b2_00445_0001_0000200006_0000001_0_0001 (protein)
chain: SSSSDESEEILQEAREEIRELLENGNYHEAFRVLTEAAARLMKLGDIEALRELAEFVHKVSSSSS
B7: il2ra_site2_2erj_normal_mot_HHH_b2_02500_af2_000000175_0001_19_35_H_._HHH_b2_05903_0001_0000100010_0000001_0 (protein)
chain: SSSSSEELRRLYELADELMRAVWEGDEEAVEEIFEEIEKLAKEAQSESAREIAELLLRLFNSSSS
B8: il2ra_site1_3nfp_sap_7_mot_HHH_b2_01582_af2_000000000_0001_1_16_H_._856d6656b12a78c2cacd0d35356dc32d_0001_0001_0000400011_0000001_0_0001_af2pred_0001_af2pred (protein)
chain: SSSSDKAAKRARHLLARAILLLKQGNPEEAEKVAQEALRVAEEGNDERAREEIERLLEEIGSSSS
B9: il2ra_site2_2erj_normal_mot_HHH_b1_03097_000000125_0001_21_38_H_._HHH_b1_03595_af2_0001_0001000037_0000001_0 (protein)
chain: SSSSDEEEAEKLLEELERALEEGDEELFEKLAEKVSQVVYKLGDPQLFAALQELLFLAQQASSSS
B10: il2ra_site1_2b5i_normal_mot_3116615af0ee64d731c1c85d8523bf51_0001_000000216_0001_15_32_H_._HHH_b2_02526_af2_0001_0000300024_0000001_0_af2pred_dldesign_0_af2pred (protein)
chain: SSSSSPLAEKAEAAIAKARELKAAGKLREALELLEEIHKEVSAADDEELLARIEEVARELSSSSS
B11: il2ra_site2_2erj_sap_24_mot_HHH_b1_01310_000000213_0001_39_52_H_._HHH_b2_00637_af2_0001_0000100001_0000001_1_0001 (protein)
chain: SSSSNEELRRLYELAELLIRLITEGDREEFEEVLREAEELAEKLDSETAKRILENLHRRLSSSSS
B12: il2ra_site1_2b5i_normal_mot_HHH_b2_04910_000000118_0001_1_19_H_._HHH_b1_04383_0001_0000600015_0000001_0_af2pred_0001_af2pred_1 (protein)
chain: SSSSNEEEAKRARELFEEANRLDKNGNPEKARELLEEAEELAREAGSKALLKMIEIALRSISSSS
B13: il2ra_site1_2b5i_normal_mot_HHH_b2_04910_000000118_0001_1_19_H_._HHH_b1_05382_0001_0000100006_0000001_0 (protein)
chain: SSSSSEAARLFREYFKQADEADKRGNPEEAEELLEELIRLLRELNNPAFVRSAEVALKNLKSSSS
B14: il2ra_site2_2erj_normal_mot_HHH_b1_04462_000000080_0001_40_56_H_._HHH_b2_05347_0001_0000300010_0000001_0 (protein)
chain: SSSSDEEEVRRLLEEAQEAFEEGDLELVFRLRDKALHVASKTQNQELIELVARVTEEIQKSSSSS
B15: il2ra_site2_3nfp_normal_mot_HHH_b2_05976_000000001_0001_22_38_H_._HHH_b2_00952_0001_0000500028_0000001_0 (protein)
chain: SSSSDVEEEVEKLLEQAEELYRKGNPEEVRKILAEATHLAYEARNHELFALIQEFLSRLESSSSS
B16: il2ra_site2_3nfp_sap_12_mot_HHH_b1_03475_af2_000000198_0001_19_35_H_._HHH_b2_05651_0001_0000200010_0000001_0_0001 (protein)
chain: SSSSSKAEEYLRAALKIARLALEAGDPESARRIAEIALQAAEDQGDEELEEEIRKLLEEIGSSSS
B17: il2ra_site1_1z92_normal_mot_9b3351f2f66fbcc824ad33b4da01f8ef_0001_af2_000000012_0001_16_32_H_._HHH_b1_08171_0001_0000100006_0000001_0 (protein)
chain: SSSSSEEVLKKDLRFAVEARNPSSFRRLAELARRDLKEAGDEEALREFEEFVEELEQELGSSSSS
B18: il2ra_site1_3nfp_sap_20_mot_HHH_b2_01313_af2_000000007_0001_1_16_H_._HHH_b2_00572_0001_0000500025_0000001_0_0001_af2pred_0001_1_af2pred_swapped (protein)
chain: SSSSSSDKELIRFVIELAAKLGLSAEQSEELIKLLAQLEKRGISPEEIQEILKEYAEKLSSSSSS

Biological target: il2ra, P01589
Experiment: yeast display titration

Row | Binder | apparent Kd
1 | B1 | inactive: no binding seen
2 | B2 | inactive: no binding seen
3 | B3 | inactive: no binding seen
4 | B4 | inactive: no binding seen
5 | B5 | inactive: no binding seen
6 | B6 | inactive: no binding seen
7 | B7 | inactive: no binding seen
8 | B8 | inactive: no binding seen
9 | B9 | inactive: no binding seen
10 | B10 | inactive: no binding seen
11 | B11 | inactive: no binding seen
12 | B12 | inactive: no binding seen
13 | B13 | inactive: no binding seen
14 | B14 | inactive: no binding seen
15 | B15 | inactive: no binding seen
16 | B16 | inactive: no binding seen
17 | B17 | inactive: > 1500 nM
18 | B18 | inactive: no binding seen

2 entries drawn at random from those above, as already listed:
Row | Binder | apparent Kd
18 | B18 | inactive: no binding seen
7 | B7 | inactive: no binding seen
